Measurements: paper doi:10.1101/2022.11.15.516651

Protein sequences, listed by entry. Tags and fused reporters are not part of them. Lines headed by an entry give the natural chain unless they say otherwise; changes in a name come on top. Chains listed by the source or under a name are the forms on record and can include a tag or linker. Residues count along the entry.
FLAG-SLC3A2 WTseq (P08195, residues 66-630): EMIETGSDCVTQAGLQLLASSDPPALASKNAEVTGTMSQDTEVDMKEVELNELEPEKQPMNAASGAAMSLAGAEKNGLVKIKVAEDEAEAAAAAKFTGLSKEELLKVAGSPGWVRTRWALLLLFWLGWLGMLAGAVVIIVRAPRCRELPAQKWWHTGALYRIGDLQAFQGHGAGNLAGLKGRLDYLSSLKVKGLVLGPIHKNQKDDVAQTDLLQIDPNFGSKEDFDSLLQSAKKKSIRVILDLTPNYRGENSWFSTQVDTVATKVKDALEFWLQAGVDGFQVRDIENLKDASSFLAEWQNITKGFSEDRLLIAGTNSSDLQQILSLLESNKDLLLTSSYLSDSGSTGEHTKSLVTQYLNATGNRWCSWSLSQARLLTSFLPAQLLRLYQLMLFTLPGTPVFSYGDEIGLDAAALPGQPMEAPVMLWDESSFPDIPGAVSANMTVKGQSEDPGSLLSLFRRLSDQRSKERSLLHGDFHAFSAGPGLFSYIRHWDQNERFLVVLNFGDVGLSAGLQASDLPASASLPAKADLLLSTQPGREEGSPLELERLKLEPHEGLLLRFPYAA
FLAG-SLC3A2 A273N (P08195, form named): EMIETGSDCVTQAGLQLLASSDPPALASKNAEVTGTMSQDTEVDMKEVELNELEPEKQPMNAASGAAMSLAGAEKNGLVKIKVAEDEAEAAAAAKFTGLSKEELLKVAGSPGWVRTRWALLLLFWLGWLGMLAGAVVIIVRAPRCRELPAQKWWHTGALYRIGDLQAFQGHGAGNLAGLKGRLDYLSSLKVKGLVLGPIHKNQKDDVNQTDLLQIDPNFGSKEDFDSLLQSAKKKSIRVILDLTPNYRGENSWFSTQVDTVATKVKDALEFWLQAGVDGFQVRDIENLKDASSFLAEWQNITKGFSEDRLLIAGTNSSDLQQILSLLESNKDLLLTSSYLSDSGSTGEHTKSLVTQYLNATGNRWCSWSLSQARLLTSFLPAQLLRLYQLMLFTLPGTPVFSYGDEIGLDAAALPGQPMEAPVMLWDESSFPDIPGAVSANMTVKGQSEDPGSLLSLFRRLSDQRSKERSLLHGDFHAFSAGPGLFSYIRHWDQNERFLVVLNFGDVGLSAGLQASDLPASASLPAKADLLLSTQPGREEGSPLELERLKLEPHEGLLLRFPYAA
UniProt P08238: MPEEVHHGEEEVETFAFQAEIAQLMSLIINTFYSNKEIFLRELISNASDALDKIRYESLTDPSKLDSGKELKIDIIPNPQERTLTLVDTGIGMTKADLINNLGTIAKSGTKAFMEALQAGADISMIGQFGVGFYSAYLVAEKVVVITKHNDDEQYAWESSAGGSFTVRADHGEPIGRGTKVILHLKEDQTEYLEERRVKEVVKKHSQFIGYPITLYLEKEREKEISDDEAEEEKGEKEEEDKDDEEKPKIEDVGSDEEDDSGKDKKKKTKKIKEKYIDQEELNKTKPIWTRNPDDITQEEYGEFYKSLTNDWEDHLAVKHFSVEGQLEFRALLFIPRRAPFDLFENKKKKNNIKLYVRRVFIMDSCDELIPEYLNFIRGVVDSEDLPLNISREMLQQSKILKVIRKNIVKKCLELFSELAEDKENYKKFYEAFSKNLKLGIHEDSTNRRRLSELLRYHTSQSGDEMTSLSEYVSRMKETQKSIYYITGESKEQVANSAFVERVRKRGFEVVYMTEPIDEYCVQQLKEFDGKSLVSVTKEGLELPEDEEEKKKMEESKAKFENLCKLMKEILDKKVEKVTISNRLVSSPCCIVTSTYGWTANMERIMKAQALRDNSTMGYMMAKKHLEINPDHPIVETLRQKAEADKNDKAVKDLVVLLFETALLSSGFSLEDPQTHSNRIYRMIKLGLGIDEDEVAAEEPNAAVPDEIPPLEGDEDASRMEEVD
UniProt P11142: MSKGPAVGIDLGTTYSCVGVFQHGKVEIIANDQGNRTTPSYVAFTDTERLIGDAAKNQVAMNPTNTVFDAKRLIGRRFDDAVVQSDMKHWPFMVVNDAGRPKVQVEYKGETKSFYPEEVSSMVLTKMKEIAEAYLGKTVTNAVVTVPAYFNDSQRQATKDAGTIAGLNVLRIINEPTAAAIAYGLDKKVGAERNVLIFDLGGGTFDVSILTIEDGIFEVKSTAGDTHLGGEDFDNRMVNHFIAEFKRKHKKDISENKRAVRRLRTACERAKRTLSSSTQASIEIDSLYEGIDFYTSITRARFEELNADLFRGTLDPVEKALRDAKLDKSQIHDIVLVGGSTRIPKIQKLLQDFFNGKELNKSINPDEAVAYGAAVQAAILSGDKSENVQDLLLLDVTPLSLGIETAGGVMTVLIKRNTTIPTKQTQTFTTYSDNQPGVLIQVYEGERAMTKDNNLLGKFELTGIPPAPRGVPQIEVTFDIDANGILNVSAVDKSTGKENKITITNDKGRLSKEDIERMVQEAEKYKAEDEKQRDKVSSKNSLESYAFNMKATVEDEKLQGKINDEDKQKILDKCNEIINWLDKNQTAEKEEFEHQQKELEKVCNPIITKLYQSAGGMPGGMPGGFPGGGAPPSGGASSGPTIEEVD
UniProt P16070, residues 21-742: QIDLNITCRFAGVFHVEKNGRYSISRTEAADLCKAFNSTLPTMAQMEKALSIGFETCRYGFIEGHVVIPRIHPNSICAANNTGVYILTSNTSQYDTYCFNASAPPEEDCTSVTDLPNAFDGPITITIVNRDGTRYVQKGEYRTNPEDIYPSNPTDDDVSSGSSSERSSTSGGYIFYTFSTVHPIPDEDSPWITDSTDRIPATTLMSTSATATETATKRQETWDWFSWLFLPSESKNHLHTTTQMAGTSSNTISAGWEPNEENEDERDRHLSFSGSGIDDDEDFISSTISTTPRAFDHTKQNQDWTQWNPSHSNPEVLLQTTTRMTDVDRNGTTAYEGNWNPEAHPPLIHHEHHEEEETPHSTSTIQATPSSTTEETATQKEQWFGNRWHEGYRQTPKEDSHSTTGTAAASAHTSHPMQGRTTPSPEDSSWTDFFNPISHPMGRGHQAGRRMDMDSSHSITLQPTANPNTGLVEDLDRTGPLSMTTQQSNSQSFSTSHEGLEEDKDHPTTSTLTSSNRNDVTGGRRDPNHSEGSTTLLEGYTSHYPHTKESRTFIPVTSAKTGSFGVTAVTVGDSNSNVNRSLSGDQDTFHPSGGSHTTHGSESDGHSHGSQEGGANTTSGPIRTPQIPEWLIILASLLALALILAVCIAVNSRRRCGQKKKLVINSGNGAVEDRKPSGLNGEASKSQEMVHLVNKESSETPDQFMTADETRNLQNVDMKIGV
UniProt P27824, residues 21-592: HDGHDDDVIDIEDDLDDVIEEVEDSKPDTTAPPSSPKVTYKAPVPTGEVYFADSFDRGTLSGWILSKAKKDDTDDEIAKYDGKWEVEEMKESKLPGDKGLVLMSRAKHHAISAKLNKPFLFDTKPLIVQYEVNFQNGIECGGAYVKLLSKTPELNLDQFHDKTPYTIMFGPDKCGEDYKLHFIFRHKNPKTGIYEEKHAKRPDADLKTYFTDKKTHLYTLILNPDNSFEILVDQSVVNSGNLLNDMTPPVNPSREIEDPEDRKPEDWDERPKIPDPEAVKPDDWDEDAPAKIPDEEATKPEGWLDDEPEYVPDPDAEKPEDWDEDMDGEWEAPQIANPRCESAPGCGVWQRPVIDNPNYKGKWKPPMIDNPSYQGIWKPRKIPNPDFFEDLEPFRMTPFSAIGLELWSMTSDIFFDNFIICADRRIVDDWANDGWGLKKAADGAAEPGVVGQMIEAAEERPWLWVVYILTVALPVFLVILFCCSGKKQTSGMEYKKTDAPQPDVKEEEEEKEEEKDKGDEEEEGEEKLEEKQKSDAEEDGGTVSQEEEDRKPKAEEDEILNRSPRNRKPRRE
UniProt P04792: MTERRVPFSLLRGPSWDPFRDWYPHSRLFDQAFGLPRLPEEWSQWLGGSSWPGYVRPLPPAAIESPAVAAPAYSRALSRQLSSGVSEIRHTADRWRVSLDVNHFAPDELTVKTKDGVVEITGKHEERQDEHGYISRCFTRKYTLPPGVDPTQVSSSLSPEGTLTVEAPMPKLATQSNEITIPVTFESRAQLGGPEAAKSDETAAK
UniProt P30825: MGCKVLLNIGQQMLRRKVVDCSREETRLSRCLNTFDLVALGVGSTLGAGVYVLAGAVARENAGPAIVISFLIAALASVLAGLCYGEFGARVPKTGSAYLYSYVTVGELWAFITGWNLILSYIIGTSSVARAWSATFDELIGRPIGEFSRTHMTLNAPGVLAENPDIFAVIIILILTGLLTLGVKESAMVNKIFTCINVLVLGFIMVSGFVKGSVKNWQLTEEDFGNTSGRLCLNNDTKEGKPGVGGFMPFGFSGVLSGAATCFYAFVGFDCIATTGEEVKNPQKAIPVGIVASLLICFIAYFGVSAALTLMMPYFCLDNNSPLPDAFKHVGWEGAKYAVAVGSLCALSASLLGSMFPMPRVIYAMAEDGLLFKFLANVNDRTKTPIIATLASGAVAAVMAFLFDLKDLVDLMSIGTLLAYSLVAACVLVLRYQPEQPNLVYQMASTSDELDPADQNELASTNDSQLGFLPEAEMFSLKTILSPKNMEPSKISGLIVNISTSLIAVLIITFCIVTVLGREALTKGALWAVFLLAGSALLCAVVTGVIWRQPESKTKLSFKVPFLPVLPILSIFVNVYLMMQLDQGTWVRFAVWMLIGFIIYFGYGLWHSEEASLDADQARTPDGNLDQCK
UniProt P11021, residues 19-654: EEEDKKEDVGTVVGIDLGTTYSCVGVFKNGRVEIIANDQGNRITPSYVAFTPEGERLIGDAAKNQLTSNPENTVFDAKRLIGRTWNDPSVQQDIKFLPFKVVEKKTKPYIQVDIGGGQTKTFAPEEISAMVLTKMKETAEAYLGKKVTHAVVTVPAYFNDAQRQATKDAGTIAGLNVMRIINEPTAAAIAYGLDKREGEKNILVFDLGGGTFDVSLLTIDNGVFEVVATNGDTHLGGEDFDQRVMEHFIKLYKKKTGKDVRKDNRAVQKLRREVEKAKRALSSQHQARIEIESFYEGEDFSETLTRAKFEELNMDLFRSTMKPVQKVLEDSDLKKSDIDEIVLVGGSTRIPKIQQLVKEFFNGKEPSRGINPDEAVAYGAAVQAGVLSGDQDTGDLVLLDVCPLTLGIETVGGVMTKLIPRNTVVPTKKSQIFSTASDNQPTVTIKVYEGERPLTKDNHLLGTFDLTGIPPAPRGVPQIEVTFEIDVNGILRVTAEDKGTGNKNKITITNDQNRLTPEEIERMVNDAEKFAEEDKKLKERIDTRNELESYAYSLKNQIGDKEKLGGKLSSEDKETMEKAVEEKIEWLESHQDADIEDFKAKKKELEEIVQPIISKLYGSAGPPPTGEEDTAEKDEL
UniProt Q9H9S3: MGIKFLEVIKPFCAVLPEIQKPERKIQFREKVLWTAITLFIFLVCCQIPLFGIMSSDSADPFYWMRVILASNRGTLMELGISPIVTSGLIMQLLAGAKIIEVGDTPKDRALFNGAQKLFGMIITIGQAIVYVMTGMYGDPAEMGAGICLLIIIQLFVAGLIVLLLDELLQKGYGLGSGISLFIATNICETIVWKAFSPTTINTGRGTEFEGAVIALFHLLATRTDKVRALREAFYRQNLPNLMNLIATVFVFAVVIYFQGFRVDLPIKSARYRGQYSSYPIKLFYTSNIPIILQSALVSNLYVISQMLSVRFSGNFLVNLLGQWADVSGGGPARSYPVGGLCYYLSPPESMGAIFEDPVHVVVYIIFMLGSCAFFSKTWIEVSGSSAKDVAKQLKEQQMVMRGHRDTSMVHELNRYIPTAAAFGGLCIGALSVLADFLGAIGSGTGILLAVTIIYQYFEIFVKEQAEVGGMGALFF

Legend:
[1] = target: FLAG-SLC3A2 WTseq (human) (UniProt P08195); assay: affinity purification with mass spectrometry
[2] = target: FLAG-SLC3A2 A273N (human) (UniProt P08195); assay: affinity purification with mass spectrometry

| binding [1] | binding [2] | Substance |
| --- | --- | --- |
| binds |  | BSG (from UniProt P35613-2) |
| binds | binds | HSP90AB1 (from UniProt P08238 1-724) |
| binds | binds | HSPA8 (from UniProt P11142 1-646) |

The remaining lines, values behind:

| Substance | binding [1] | binding [2] |
| --- | --- | --- |
| CD44 (from UniProt P16070 21-742) | binds |  |
| CANX (from UniProt P27824 21-592) | binds | binds |
| HSPB1 (from UniProt P04792 1-205) | binds | binds |
| Arg/Lys/Ornithine high-affinity permease SLC7A1 (from UniProt P30825 1-629) | binds |  |
| HSPA5 (from UniProt P11021 19-654) | binds | binds |
| SEC61A2 (from UniProt Q9H9S3 1-476) | binds | binds |

No constants are given. Whether binding was seen depends on the method and setting. Binding seen in cells or lysates may run through a third protein. Here binding means that the protein was enriched with, or labelled near, the bait; the list need not be complete.
